## Library screening results

A: 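Assay on Mycobacterium tuberculosis, filed only as a heat shock assay from Cornell; the read-out is not stated. The concentration is filed as 10 mM, unlikely as a test dose, so the dose is not known. The record gives no direction; compounds that gave an IC50 in retests scored well above the rest, so higher reads as stronger inhibition. Size under these conditions: about 69,000 compounds, about 930 of them at 50% or above in at least one test.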
B: 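Whole-cell assay for inhibitors of Mycobacterium tuberculosis growth, labelled Cornell in the record; the read-out is not stated. The concentration is filed as 10 mM, unlikely as a test dose, so the dose is not known. The record gives no direction; compounds strong in two other growth screens of this library score well above the rest, so higher reads as stronger inhibition. About 53,000 compounds were tested under these conditions; 1.7% (about 900) showed 50% or more at least once.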

Each number is a percent effect as filed. How 0% and 100% were set is not recorded. Most values in the screen are low, and negative values occur. Compounds were drawn at random from those tested, without regard to their results. A dash means the value is not listed here; it may have been measured.

compound	A	B
Nc1cc(-c2cccs2)nn(CC(=O)N2CCc3ccccc32)c1=O	6.818	-2.351
Cc1nn(CCO)c(C)c1CNC1CCc2c(F)cccc21 (stereo not drawn)	-15.57	12.29
Cc1[nH]nc2ncc(C(=O)N3CCCC3c3noc(C(C)C)n3)cc12 (stereo not drawn)	12.87	24.5
CN(C)c1ncc(-c2cc(C(=O)NCCO)n(CC3CC3)c2)cn1.O=C(O)C(F)(F)F	-4.821	-
COc1ccnc(N2CCN(C(=O)Cc3ccc(C)s3)CC2)n1	11.72	-
[H][C@@]12CCCO[C@]1([H])[C@@H](OCc1cccnc1)CN2c1cc(OC)ncn1	-32.21	-
CC(C)C(NC(=O)N1CCN(c2ccc(Cl)cc2)CC1)C(=O)NC1CC1 (stereo not drawn)	-0.5709	93.48
Brc1cccc(-c2nnc(CNCCn3cccn3)o2)c1	-9.219	-
CC(=O)Nc1ncc(S(=O)(=O)Nc2ccc(F)cc2)s1	-1.315	-
[H][C@@]12CS(=O)(=O)C[C@]1([H])N(Cc1ccccc1F)CCN2C(=O)C1CCC1	-15.41	-30.22
CCN(Cc1nc2c(cnn2C)c(=O)[nH]1)c1ccccc1	14.68	-8.549
Cc1cc(N(C)C)nc(C2(C)CCCN2CC(N)=O)n1 (stereo not drawn)	-8.869	-10.77
COc1ccc(CN2CCC3(CC2)C(C(=O)O)CC(=O)N3C)cc1Cl (stereo not drawn)	11.31	2.301
Cc1cc(S(=O)(=O)N2CCOCC2C#N)ccc1F (stereo not drawn)	-17.55	-22.76
CC1COCCN1C(=O)c1ccc(=O)n(Cc2ccccc2)n1 (stereo not drawn)	-7.971	37.18
Cn1nccc1-c1cncc(C2CCCN(S(C)(=O)=O)C2)n1 (stereo not drawn)	-10.37	20.84
O=C(Cn1cc(C2CC2)nn1)N(Cc1cccs1)CC1CCCO1 (stereo not drawn)	-29.88	-
CC(C)N1C[C@H](NC(=O)c2coc(COc3cccc(F)c3)n2)[C@@H](O)C1	0.8379	24.33
CC(C(=O)Nc1ccnn1C(C)C)N1CCc2nn(C)c(=O)cc2C1 (stereo not drawn)	2.564	-
Cc1ccc(-c2nc(CN3CCc4c(ncn4C)C3)cs2)o1	-2.744	-1.3
COC(=O)c1cccn1C1CCN(CC(=O)NC2CCCCC2)CC1	23.16	21.65
O=C(c1cnc(Nc2ccccc2)nc1)N1CCS(=O)(=O)CC1	-7.629	-15.6
Cc1ncsc1C(=O)NCc1cccs1	-0.3178	23
Cc1nn2c(nc1=O)-c1ccccc1NC2C(=O)O (stereo not drawn)	13.59	-34.68
COc1ccc(C(=O)Cn2cnnc2[S+](C)[O-])cc1Cl (stereo not drawn)	39.39	-
COc1cc(C)nc(N2CCN(C(=O)CCc3ccncc3)CC2)n1	-37.26	-8.984
CC(C)OCCCN(Cc1ccncc1)Cc1cc(F)ccc1F.Cl	-8.981	-16.14
CC(NCCc1nccn1Cc1ccccc1)c1cccs1 (stereo not drawn)	34.94	-16.42
CCN(CC)CCn1cnc(-c2ccccc2)c1-c1cnn(CC)c1	-41.02	2.934
[H][C@@]12CN(CCc3ccccc3)C[C@]1([H])N(CCCN1CCOCC1)C(=O)O2	4.436	12.78
COc1cc(C(=O)N(C)C)ccc1NC(=O)c1ccsc1	-21.05	3.434
Cc1ccc(CN(C)Cc2ncc(C(C)(C)C)o2)o1	2.194	-0.8564
Cc1noc(C)c1CCNc1nccc(CCC(F)(F)F)n1	1.706	27.13
CC(C)c1cc(NC(=O)CN2CCCC(Cn3cncn3)C2)on1 (stereo not drawn)	6.11	-1.349
O=C(O)C(F)(F)F.O=C(O)C(F)(F)F.[H][C@@]12CN(Cc3ccco3)C[C@]1([H])[C@@H](OC)CCN2c1ncc(F)cn1	-13.57	11.64
CNC(=O)C1Cn2ccnc2C2(CCN(Cc3csc(C)n3)CC2)O1 (stereo not drawn)	5.24	2.588
CC(C)CCC(=O)NC(C)c1nnc2n1CCCCC2 (stereo not drawn)	-2.564	9.969
CCOCC(O)CN1CCN(C(=O)c2ccccc2Cl)CC1 (stereo not drawn)	3.504	-
COC(=O)CCN(C)C(=O)c1csc(Cc2ccccc2F)n1	10.21	-16.49
CS(=O)(=O)N1CCN(c2ccc3ccc(C(=O)NC4CC4)cn23)CC1	20.39	-6.774
[H][C@@]12CNC(=O)[C@H](C)[C@]1([H])CN(Cc1ccccc1)C2	-8.384	9.197
O=C(CCc1ccco1)N1CCc2[nH]nc(COc3ccccc3)c2C1	5.6	-53.35
COc1cc(OCC(=O)NCCc2ccccc2)cc(OC)c1OC	9.16	10.83
O=C(CN1CCN(c2ncnc3cccc(F)c23)CC1)N1CCCC1	1.342	-4.022
CN(C)c1nc2c(c(=O)[nH]1)CCN(C(=O)C1CCCO1)C2 (stereo not drawn)	4.403	-
Cc1cc2cc(Nc3c(C#N)c(=O)n(C)c(=O)n3C)ccc2[nH]1	20.02	-
CC[C@@H](c1ccccc1)n1c(CN)n[nH]c1=O	-7.442	-37.04
Cc1nn(C)c(Cl)c1C1CCCN1C(=O)c1ccncc1 (stereo not drawn)	-23.46	-1.975
Cc1cc(C)n(CCN2CCN(C(=O)c3ccc(Br)o3)CC2)n1	-20.06	6.244
Cc1nc(C)n(CC2CCCN(CCOc3cccc(F)c3)C2)n1 (stereo not drawn)	-7.174	-71.73
Cc1nc(CC(=O)N2CCCC(N(C)Cc3ccccc3)C2)cs1 (stereo not drawn)	10.35	15.06
Cn1ccnc1C(=O)N1CCC(Cn2cc(-c3ccsc3)nn2)CC1	7.335	-
CC(C)N(C)[C@@H]1CCN(Cc2ccoc2)[C@H]1Cc1ccccc1	-25.29	38.11
COc1cccc(COCC(=O)N2CCC(CC(N)=O)CC2)c1	-3.415	-
CC(C)(C)OC(=O)Cn1nc(C2CC2)cc(C(F)(F)F)c1=O	10.71	14.21
COc1ccc(CNC(=O)NC(C)(C(=O)O)c2ccco2)cc1F (stereo not drawn)	-25.68	-25.47
O=C(O)C(F)(F)F.[H][C@]12CCN(C(=O)NCc3ccccc3)C[C@@]1([H])OCCN(CCOC)C2	-27.06	-0.5771
CCN(CC)C(C(=O)Nc1ccc2c(c1)CCC(=O)N2)c1ccccc1 (stereo not drawn)	-39.78	-
CCc1nc(C2CCCN2Cc2nc(C3CC3)no2)no1 (stereo not drawn)	-25.85	-10.84
CNS(=O)(=O)c1ccccc1N1CCN(C(=O)NC(C)C)CC1	6.743	-6.243
CCN(CC(F)(F)F)C(=O)C1CCCN(Cc2nc(C)c(C)o2)C1 (stereo not drawn)	2.097	9.94
CNc1ncc(CN(C)c2nc(C3CCCC3)nc3c2cnn3C)cn1	20.61	-22.89
Cc1c[nH]c(C2CCCN2C(=O)CCc2c(C)n[nH]c2C)n1 (stereo not drawn)	-11.36	5.572
CCOCCn1c(=O)[nH]c2cc(C(=O)N(C)Cc3cc(C)[nH]n3)ccc21	6.592	12.37
CC1CCCN(C(=O)c2ccc(N(C)Cc3cnn(C)c3)nc2)C1 (stereo not drawn)	-10.1	-7.57
CN(CC1COc2ccccc2O1)C(=O)NCCCn1ccnc1 (stereo not drawn)	-2.217	-
CC[C@H]1N(CC2CCOCC2)CCC[C@]12CCC(=O)N2.O=C(O)C(F)(F)F	-0.4271	6.768
Cc1nn(-c2ccccc2Cl)c(C)c1CCC(=O)O	1.786	0.4161
[H][C@]12CC[C@]([H])(CN(C(=O)c3ccc(=O)[nH]c3)C1)N(Cc1ccccc1)C2	-0.01148	-10.35
COCC(=O)N(C)Cc1ccc(Cl)c(Cl)c1	3.004	9.423
O=C(O)C(F)(F)F.O=C(O)C(F)(F)F.[H][C@@]12CCN(Cc3cccc(C)n3)[C@@]1([H])CCN2C(=O)c1ccoc1C	-24.4	-0.942
Cc1cnn(CC2CCCN2C(=O)CCc2c(C)nn(C)c2C)c1 (stereo not drawn)	-0.3583	-
O=S1(=O)CCCN1Cc1coc(-c2cccs2)n1	49.94	17.69
CCc1cnc(CN(C(C)=O)C2CCN(CCc3ccccc3)C2)o1 (stereo not drawn)	-0.9055	-5.219
COC(=O)CCn1ccc(=O)c2cc(OC)ccc21	2.287	-
OCCCNc1cccc(COC2CCCCC2)c1	-23.58	-18.6
Cc1cc(NCCNc2cccnc2)nc(-c2ccccc2O)n1	65.56	-
CN1N=C(C(=O)NCc2ccc3c(c2)CCCN3C)CCC1=O	-4.561	-
Cc1cnn(CC2CN(CC(=O)NCCc3cccs3)CCO2)c1 (stereo not drawn)	7.267	-

The values are deposited in ChEMBL (CHEMBL3988442, “University of Dundee, Small-Polar-MMV Screening Library” (2021)).